Laboratory results: PubChem BioAssay AID330 (DTP/NCI, 2004)
The list shows only some results of the screen, not a fair sample: it gathers tests that were run many times, whatever their T/C, doses with no T/C, and many T/C values between a quarter and a half above the control. Other doses and runs of a compound stand elsewhere. T/C: endpoint of the treated group in % of that of the vehicle group. Some entries give survivors of the animals treated and no T/C: the source files T/C as zero there, which appears to mark a toxic dose or a test without result, not a measured value. Some doses without a T/C left all or most animals alive at the check, yet need not have been tolerated: the source hardly ever lists a survival T/C far under the control, and the zero likely stands for such cases as well. Counts of survivors are from the toxicity check (mostly the fifth day) where no day follows; animals may have died later. Schedule codes are those of the source, taken here to give the interval after Q, in days (D) or hours (H), and the number of doses after X. Some entries hold several experiments; the values are given in rising order. For survival time, this PubChem deposit counts one and a half times the control or more as active, and values a quarter to a half above the control carry no call in these data; other NCI protocols may use other cut-offs. Some T/C values carry the count of animals alive at the toxicity check (mostly the fifth day); without a count, all were alive then.

Tested on: P388 leukemia ip, CD2F1 mice, survival T/C
Experiment: NCI In Vivo Anticancer Drug Screen. Data for tumor model P388 Leukemia (intraperitoneal) in CD2F1 (CDF1) mice
Details: T/C endpoint: median survival time, higher T/C = longer survival
[1] = dose: 200.0 mg/kg/injection, schedule: Q01DX009 (ip), vehicle: saline
[2] = dose: 50.0 mg/kg/injection, schedule: Q01DX009 (ip), vehicle: saline with Tween-80
[3] = dose: 120.0 mg/kg/injection, schedule: Q01DX005 (ip), vehicle: saline with Tween-80
[4] = dose: 240.0 mg/kg/injection, schedule: Q01DX005 (ip), vehicle: saline with Tween-80
[5] = dose: 200.0 mg/kg/injection, schedule: Q01DX009 (ip), vehicle: Klucel (hydroxypropylcellulose) (HPC)
[6] = dose: 50.0 mg/kg/injection, schedule: Q01DX009 (ip), vehicle: saline
[7] = dose: 100.0 mg/kg/injection, schedule: Q01DX009 (ip), vehicle: saline
[8] = dose: 60.0 mg/kg/injection, schedule: Q01DX005 (ip), vehicle: saline with Tween-80

Compound: O=C1CC2C(C1Nc1ccccc1)C1C(=Nc3ccccc3)C(Nc3ccccc3)=CC1N2c1ccccc1 (configuration not stated)
- survivor count (dose: 60.0 mg/kg/injection, schedule: Q01DX005 (ip), vehicle: Klucel (hydroxypropylcellulose) (HPC)): 6 of 6
- survivor count (dose: 120.0 mg/kg/injection, schedule: Q01DX005 (ip), vehicle: Klucel (hydroxypropylcellulose) (HPC)): 6 of 6
- survivor count (dose: 240.0 mg/kg/injection, schedule: Q01DX005 (ip), vehicle: Klucel (hydroxypropylcellulose) (HPC)): 6 of 6

Compound: CC(C)=C(C#N)N(C)C(C)(C)C
- survivor count [1]: 0 of 6

Compound: O=[N+]([O-])c1c(Cl)sc(Cl)c1[N+](=O)[O-]
- survivor count (dose: 6.25 mg/kg/injection, schedule: Q01DX009 (ip), vehicle: saline with Tween-80): 6 of 6
- survivor count (dose: 12.5 mg/kg/injection, schedule: Q01DX009 (ip), vehicle: saline with Tween-80): 3 of 6 and 6 of 6
- survivor count (dose: 25.0 mg/kg/injection, schedule: Q01DX009 (ip), vehicle: saline with Tween-80): 0 of 6
- survivor count [2]: 0 of 6
- survivor count (dose: 100.0 mg/kg/injection, schedule: Q01DX009 (ip), vehicle: saline with Tween-80): 0 of 6
- survivor count (dose: 200.0 mg/kg/injection, schedule: Q01DX009 (ip), vehicle: saline with Tween-80): 0 of 6
- survivor count (dose: 400.0 mg/kg/injection, schedule: Q01DX009 (ip), vehicle: saline with Tween-80): 0 of 6

Compound: O=C(O)C1(Cc2ccc(O)c(O)c2)NCCS1 (configuration not stated)
- survivor count (dose: 400.0 mg/kg/injection, schedule: Q01DX001 (ip), vehicle: Klucel (hydroxypropylcellulose) (HPC)): 0 of 6

Compound: CCCCOC(=O)c1ccccc1C(=O)O.CCCCOC(=O)c1ccccc1C(=O)O.[Cu+2]
- survivor count (dose: 50.0 mg/kg/injection, schedule: Q04DX003 (ip), vehicle: saline with Tween-80): 1 of 6

Compound: Nc1cc2c(c[n+](CCCCCCC[n+]3cc4c5ccccc5c(N)cc4c4ccccc43)c3ccccc23)c2ccccc12
- T/C (dose: 3.13 mg/kg/injection, schedule: Q04DX003 (ip), vehicle: other): 144 % of control
- survivor count (dose: 50.0 mg/kg/injection, schedule: Q04DX003 (ip), vehicle: other): 6 of 6

Compound: O=C1c2cccc(NCCNCCO)c2C(=O)c2cccc(NCCNCCO)c21
- T/C (dose: 5.0 mg/kg/injection, schedule: Q01DX009 (ip), vehicle: acid diluted with saline): 139 % of control
- T/C (dose: 10.0 mg/kg/injection, schedule: Q01DX009 (ip), vehicle: acid diluted with saline): 141 % of control [5 of 6 alive]
- survivor count (dose: 20.0 mg/kg/injection, schedule: Q01DX009 (ip), vehicle: acid diluted with saline): 4 of 6
- survivor count (dose: 40.0 mg/kg/injection, schedule: Q01DX009 (ip), vehicle: acid diluted with saline): 3 of 6
- survivor count (dose: 80.0 mg/kg/injection, schedule: Q01DX009 (ip), vehicle: acid diluted with saline): 3 of 6
- survivor count (dose: 160.0 mg/kg/injection, schedule: Q01DX009 (ip), vehicle: acid diluted with saline): 3 of 6

Compound: O=C1NC(=O)C2(F)CC3(CCCCC3)C2N1 (configuration not stated)
- survivor count (dose: 25.0 mg/kg/injection, schedule: Q01DX001 (ip), vehicle: Klucel (hydroxypropylcellulose) (HPC)): 2 of 6
- survivor count (dose: 50.0 mg/kg/injection, schedule: Q01DX001 (ip), vehicle: Klucel (hydroxypropylcellulose) (HPC)): 0 of 6

Compound: CC(O)CN=Cc1ccccc1[O-].CC(O)CN=Cc1ccccc1[O-].[Cu+2] (configuration not stated)
- survivor count [3]: 3 of 6
- survivor count [4]: 0 of 6

Compound: OC1(c2ccccc2C(O)(C(F)(F)F)C(F)(F)F)OC(C(F)(F)F)(C(F)(F)F)c2ccccc21 (configuration not stated)
- survivor count (dose: 50.0 mg/kg/injection, schedule: Q01DX009 (ip), vehicle: Klucel (hydroxypropylcellulose) (HPC)): 4 of 6
- survivor count (dose: 100.0 mg/kg/injection, schedule: Q01DX009 (ip), vehicle: Klucel (hydroxypropylcellulose) (HPC)): 6 of 6
- survivor count [5]: 0 of 6

Compound: Cc1cc(N(C)C)c2ccc3c(ccc4c(N(C)C)cc(C)nc43)c2n1
- survivor count [2]: 6 of 6

Compound: CN1CC2CN(C)CC(C1)C2(O)c1ccccc1 (configuration not stated)
- survivor count [6]: 0 of 6, 1 of 6, 2 of 6
- survivor count [7]: 0 of 6
- survivor count (dose: 100.0 mg/kg/injection, schedule: Q04DX002 (ip), vehicle: saline): 0 of 6
- survivor count [1]: 0 of 6
- survivor count (dose: 200.0 mg/kg/injection, schedule: Q04DX002 (ip), vehicle: saline): 0 of 6
- survivor count (dose: 400.0 mg/kg/injection, schedule: Q04DX002 (ip), vehicle: saline): 0 of 6

Compound: O=C(CBr)Nc1c(Cl)cc(Br)cc1Br
- survivor count [2]: 4 of 6

Compound: CCOc1c(N=Nc2ccccc2OC)c(C)nn1C(N)=S
- survivor count (dose: 30.0 mg/kg/injection, schedule: Q01DX005 (ip), vehicle: Klucel + Tween-80): 0 of 6
- survivor count (dose: 60.0 mg/kg/injection, schedule: Q01DX005 (ip), vehicle: Klucel + Tween-80): 0 of 6
- survivor count (dose: 120.0 mg/kg/injection, schedule: Q01DX005 (ip), vehicle: Klucel + Tween-80): 0 of 6
- survivor count (dose: 240.0 mg/kg/injection, schedule: Q01DX005 (ip), vehicle: Klucel + Tween-80): 0 of 6

Compound: CC1(c2ccccc2)NC(=O)N(CC(=O)N(c2ccccc2)c2ccccc2)C1=O (configuration not stated)
- survivor count [8]: 6 of 6
- survivor count [3]: 6 of 6

Compound: N#C[C@H](OC1OC(COC2OC(CO)C(O)C(O)C2O)C(O)C(O)C1O)c1ccccc1 (some centres not stated)
- survivor count (dose: 200.0 mg/kg/injection, schedule: Q01DX009 (oral), vehicle: suspension in saline): 3 of 6 and 4 of 6
- survivor count (dose: 400.0 mg/kg/injection, schedule: Q01DX009 (oral), vehicle: saline): 2 of 6
- survivor count (dose: 400.0 mg/kg/injection, schedule: Q01DX009 (oral), vehicle: suspension in saline): 2 of 6
- survivor count (dose: 400.0 mg/kg/injection, schedule: Q01DX009 (oral), vehicle: water): 0 of 6
- survivor count (dose: 800.0 mg/kg/injection, schedule: Q01DX009 (oral), vehicle: suspension in saline): 0 of 6 and 1 of 6
- survivor count (dose: 800.0 mg/kg/injection, schedule: Q01DX009 (oral), vehicle: water): 0 of 6
- survivor count (dose: 1600.0 mg/kg/injection, schedule: Q01DX009 (oral), vehicle: suspension in saline): 0 of 6 and 2 of 6
- survivor count (dose: 1600.0 mg/kg/injection, schedule: Q01DX009 (oral), vehicle: water): 0 of 6
- survivor count (dose: 3200.0 mg/kg/injection, schedule: Q01DX009 (oral), vehicle: suspension in saline): 0 of 6
- survivor count (dose: 3200.0 mg/kg/injection, schedule: Q01DX009 (oral), vehicle: water): 0 of 6

Compound: CCCCCC[C@H]([C@H](C)O)n1cnc2c(N)ncnc21
- survivor count [5]: 2 of 6
- survivor count (dose: 400.0 mg/kg/injection, schedule: Q01DX009 (ip), vehicle: Klucel (hydroxypropylcellulose) (HPC)): 0 of 6

Compound: c1ccc2c(c1)CCC1=C2S/C(=C2/SC3=C(S2)c2ccccc2CC3)S1
- survivor count [8]: 6 of 6
- survivor count [3]: 6 of 6
- survivor count [4]: 6 of 6

Compound: O=[N+]([O-])c1cccn2nc(COCCO)nc12
- survivor count (dose: 50.0 mg/kg/injection, schedule: Q01DX005 (ip), vehicle: saline): 5 of 5

Compound: Cc1cc2c(-c3ccccc3)c3cc(C)c(N)cc3nc2cc1N
- survivor count (dose: 50.0 mg/kg/injection, schedule: Q01DX005 (ip), vehicle: Klucel (hydroxypropylcellulose) (HPC)): 2 of 6
- survivor count (dose: 100.0 mg/kg/injection, schedule: Q01DX005 (ip), vehicle: Klucel (hydroxypropylcellulose) (HPC)): 0 of 6
- survivor count (dose: 200.0 mg/kg/injection, schedule: Q01DX005 (ip), vehicle: Klucel (hydroxypropylcellulose) (HPC)): 0 of 6

Compound: Cc1ccc(N=C(SSC(Cl)(Cl)Cl)SSC(Cl)(Cl)Cl)cc1
- survivor count (dose: 100.0 mg/kg/injection, schedule: Q01DX009 (ip), vehicle: saline + alcohol): 3 of 6
- survivor count (dose: 200.0 mg/kg/injection, schedule: Q01DX009 (ip), vehicle: saline + alcohol): 0 of 6

Compound: CC(=O)SC12CCCN1C(=O)C1(SC(C)=O)CCCN1C2=O (configuration not stated)
- survivor count [6]: 2 of 6
- survivor count [7]: 0 of 6
- survivor count [1]: 0 of 6 and 4 of 6

Compound: NC(=O)c1sc(SCc2ccccc2)c(-[n+]2ccccc2)c1N
- survivor count (dose: 100.0 mg/kg/injection, schedule: Q04DX002 (ip), vehicle: saline with Tween-80): 5 of 6
